{"source": "patent US20070053934A1", "about": "“Polyvalent multimeric composition containing active polypeptides, pharmaceutical compositions and methods of using the same” (priority 2005, published 2007)", "test": "Tryptophan fluorescence and acrylamide quenching in buffer", "assay_type": "physicochemical", "conditions": "tryptophan emission, excitation 295 nm, 10 μM peptide, phosphate buffer pH 7.4", "note": "At least one peptide structure holds a part that was inferred or is arguable (an end, a ring closure or a residue). Where a SMILES comes first, the peptide text is derived from it. Where no end group is shown, it is not given here."}
{"compound": "N=C(N)NCCC[C@H](N)C(=O)N[C@@H](Cc1c[nH]c2ccccc12)C(N)=O", "note": "[RW—NH2] (H-Arg-Trp-NH2)", "values": [{"measurement": "λmax buffer", "value": 350, "unit": "nm"}]}
{"compound": "N=C(N)NCCC[C@H](NC(=O)[C@H](Cc1c[nH]c2ccccc12)NC(=O)[C@@H](N)CCCNC(=N)N)C(=O)N[C@@H](Cc1c[nH]c2ccccc12)C(N)=O", "note": "[(RW)2—NH2] (H-RWRW-NH2)", "values": [{"measurement": "λmax buffer", "value": 350, "unit": "nm"}]}
{"compound": "N=C(N)NCCC[C@H](NC(=O)[C@H](Cc1c[nH]c2ccccc12)NC(=O)[C@H](CCCNC(=N)N)NC(=O)[C@H](Cc1c[nH]c2ccccc12)NC(=O)[C@H](CCCNC(=N)N)NC(=O)[C@H](Cc1c[nH]c2ccccc12)NC(=O)[C@H](CCCNC(=N)N)NC(=O)[C@H](Cc1c[nH]c2ccccc12)NC(=O)[C@@H](N)CCCNC(=N)N)C(=O)N[C@@H](Cc1c[nH]c2ccccc12)C(N)=O", "note": "[(RW)5—NH2]", "values": [{"measurement": "λmax buffer", "value": 348, "unit": "nm"}]}
{"compound": "RWRWRWRW-NH2 [(RW)4—NH2]", "values": [{"measurement": "λmax buffer", "value": 350.5, "unit": "nm"}]}
{"compound": "RWRWRW-NH2 [(RW)3—NH2]", "values": [{"measurement": "λmax buffer", "value": 349, "unit": "nm"}]}
